Experimental findings from article PMC9849337 are described below.

In the assay the target is Epidermal growth factor receptor (EGFR) (human (endogenous in SKOV3 and A2780)) (UniProt P00533). Briefly: co-IP; reciprocal co-IP of endogenous PKG I and EGFR from SKOV3 and A2780 lysates; primary antibody overnight at 4 °C, magnetic beads 2 h, washed four times with PBS, Western blot.

No constants are given. Whether binding was seen depends on the method and setting. Binding seen in cells or lysates may run through a third protein. Some results given as binding are weak or reduced against the parent protein; the word gives no strength.

B1: type I cGMP-dependent protein kinase (PKG I) (enzyme, UniProt Q13976 1-671)
chain: MSELEEDFAKILMLKEERIKELEKRLSEKEEEIQELKRKLHKCQSVLPVPSTHIGPRTTRAQGISAEPQTYRSFHDLRQAFRKFTKSERSKDLIKEAILDNDFMKNLELSQIQEIVDCMYPVEYGKDSCIIKEGDVGSLVYVMEDGKVEVTKEGVKLCTMGPGKVFGELAILYNCTRTATVKTLVNVKLWAIDRQCFQTIMMRTGLIKHTEYMEFLKSVPTFQSLPEEILSKLADVLEETHYENGEYIIRQGARGDTFFIISKGTVNVTREDSPSEDPVFLRTLGKGDWFGEKALQGEDVRTANVIAAEAVTCLVIDRDSFKHLIGGLDDVSNKAYEDAEAKAKYEAEAAFFANLKLSDFNIIDTLGVGGFGRVELVQLKSEESKTFAMKILKKRHIVDTRQQEHIRSEKQIMQGAHSDFIVRLYRTFKDSKYLYMLMEACLGGELWTILRDRGSFEDSTTRFYTACVVEAFAYLHSKGIIYRDLKPENLILDHRGYAKLVDFGFAKKIGFGKKTWTFCGTPEYVAPEIILNKGHDISADYWSLGILMYELLTGSPPFSGPDPMKTYNIILRGIDMIEFPKKIAKNAANLIKKLCRDNPSERLGNLKNGVKDIQKHKWFEGFNWEGLRKGTLTPPIIPSVASPTDTSNFDSFPEDNDEPPPDDNSGWDIDF
As for B1, the binding result is listed as “binds”.
